Data set [1] can be described thus: Drug binding to plasma fractionation membrane (analyte:IS ratio, membrane-fractionated vs centrifuged plasma, paper-spray MS). Particulars: Vivid™ asymmetric polysulfone membrane; blood spiked with 500 ng/mL; N = 10.
Experiment in data set [2]: as above
More on the design: key: N.S.: Not significant. p < 0.05. Particulars: Cytosep® membrane; blood spiked with 500 ng/mL; N = 10.

Take `Cc1nnc2n1-c1ccc(Cl)cc1C(c1ccccc1)=NC2` [alprazolam]: the entries for the “% drug binding by membrane” value in data set [1] and in data set [2] were 80% and “N.S.^b”, respectively.

Regarding `CC(C)NCC(O)COc1ccc(CC(N)=O)cc1` (centres unmarked) [atenolol], the “% drug binding by membrane” value in data set [1] is listed as 57%; in data set [2] it was “N.S”.

For the compound `CN1C(=O)CN=C(c2ccccc2)c2cc(Cl)ccc21` [diazepam], the “% drug binding by membrane” value in data set [1] is 58%; in data set [2], “N.S”.

For `NC(=O)N1c2ccccc2C=Cc2ccccc21` [carbamazepine], the “% drug binding by membrane” value in data set [1] was 78%; in data set [2], “N.S”.

The record behind these values is patent US10483096B2, “Device and method for analysis of biofluids by ion generation using wetted porous material” (Indiana University Research and Technology Corporation, priority 2015, dated 2019).
